# Test results from the supplement of paper PMC8728848.
# The other results are listed elsewhere or left out.
# Key:
# Test in all cases: glycan array binding signal (z-score within array); higher = stronger binding
# Conditions in all cases: glycan notation: IUPAC condensed, linker removed
# [1] = molecular target: Man(a1-2)Man(a1-6)[Man(a1-3)]Man(a1-6)[Man(a1-2)Man(a1-2)Man(a1-3)]Man(b1-4)GlcNAc(b1-4)GlcNAc
# Outline: (§1)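 Arrays were curated from the Consortium for Functional Glycomics database, 3228 in total, and kept only where the protein sequence was available. Binding is expressed as a within-array Z-score. This score was averaged across arrays of the same protein sequence at different concentrations or buffers and across linkers, and negative values can be read as non-binding.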
# Man(a1-3)[Man(a1-6)]Man = molecular target: Man(a1-3)[Man(a1-6)]Man
# Outline: as §1
# [2] = molecular target: Man(a1-3)[Man(a1-6)]Man(a1-6)[Man(a1-2)Man(a1-3)]Man(b1-4)GlcNAc(b1-4)GlcNAc
# Outline: as §1
# [3] = molecular target: Man(a1-3)[Man(a1-6)]Man(a1-6)[Man(a1-3)]Man
# Outline: as §1
# [4] = molecular target: Man(a1-3)[Man(a1-6)]Man(a1-6)[Man(a1-3)]Man(b1-4)GlcNAc(b1-4)GlcNAc
# Outline: as §1
# [5] = molecular target: Man(a1-3)[Man(a1-6)]Man(b1-4)GlcNAc(b1-4)GlcNAc
# Outline: as §1
# Man(a1-6)Man = molecular target: Man(a1-6)Man
# Outline: as §1
# Man(b1-4)GlcNAc = molecular target: Man(b1-4)GlcNAc
# Outline: as §1
# Neu5Ac(a2-3)Gal = molecular target: Neu5Ac(a2-3)Gal
# Outline: as §1
# [6] = molecular target: Neu5Ac(a2-3)Gal(b1-3)GalNAc
# Outline: as §1
# [7] = molecular target: Neu5Ac(a2-3)Gal(b1-3)GalNAc(b1-3)Gal(a1-4)Gal(b1-4)Glc
# Outline: as §1
# [8] = molecular target: Neu5Ac(a2-3)Gal(b1-3)GalNAc(b1-4)[Neu5Ac(a2-3)]Gal(b1-4)Glc
# Outline: as §1
# [9] = molecular target: Neu5Ac(a2-3)Gal(b1-3)GalNAc6S
# Outline: as §1
# [10] = molecular target: Neu5Ac(a2-3)Gal(b1-3)GlcNAc
# Outline: as §1
# [11] = molecular target: Neu5Ac(a2-3)Gal(b1-3)GlcNAc(b1-2)Man(a1-3)[Neu5Ac(a2-3)Gal(b1-3)GlcNAc(b1-2)Man(a1-6)]Man(b1-4)GlcNAc(b1-4)GlcNAc
# Outline: as §1
# [12] = molecular target: Neu5Ac(a2-3)Gal(b1-3)GlcNAc(b1-3)Gal(b1-3)GlcNAc
# Outline: as §1
# [13] = molecular target: Neu5Ac(a2-3)Gal(b1-3)GlcNAc(b1-3)Gal(b1-4)GlcNAc
# Outline: as §1
# [14] = molecular target: Neu5Ac(a2-3)Gal(b1-3)GlcNAc(b1-3)GalNAc
# Outline: as §1
# [15] = molecular target: Neu5Ac(a2-3)Gal(b1-3)GlcNAc6S
# Outline: as §1
# [16] = molecular target: Neu5Ac(a2-3)Gal(b1-3)[Fuc(a1-4)]GlcNAc
# Outline: as §1
# [17] = molecular target: Neu5Ac(a2-3)Gal(b1-3)[Fuc(a1-4)]GlcNAc(b1-3)Gal(b1-3)[Fuc(a1-4)]GlcNAc
# Outline: as §1
# [18] = molecular target: Neu5Ac(a2-3)Gal(b1-3)[Fuc(a1-4)]GlcNAc(b1-3)Gal(b1-4)[Fuc(a1-3)]GlcNAc
# Outline: as §1
# [19] = molecular target: Neu5Ac(a2-3)Gal(b1-3)[Neu5Ac(a2-3)Gal(b1-4)]GlcNAc
# Outline: as §1
# [20] = molecular target: Neu5Ac(a2-3)Gal(b1-3)[Neu5Ac(a2-6)]GalNAc
# Outline: as §1
# Neu5Ac(a2-3)Gal(b1-4)Glc = molecular target: Neu5Ac(a2-3)Gal(b1-4)Glc
# Outline: as §1
# [21] = molecular target: Neu5Ac(a2-3)Gal(b1-4)GlcNAc
# Outline: as §1
# [22] = molecular target: Neu5Ac(a2-3)Gal(b1-4)GlcNAc(b1-2)Man(a1-3)[GlcNAc(b1-2)Man(b1-4)GlcNAc(b1-2)Man(a1-6)]Man(b1-4)GlcNAc(b1-4)GlcNAc
# Outline: as §1
# [23] = molecular target: Neu5Ac(a2-3)Gal(b1-4)GlcNAc(b1-2)Man(a1-3)[Neu5Ac(a2-6)Gal(b1-4)GlcNAc(b1-2)Man(a1-6)]Man(b1-4)GlcNAc(b1-4)GlcNAc
# Outline: as §1
# [24] = molecular target: Neu5Ac(a2-3)Gal(b1-4)GlcNAc(b1-3)Gal(b1-3)GlcNAc
# Outline: as §1
# [25] = molecular target: Neu5Ac(a2-3)Gal(b1-4)GlcNAc(b1-3)Gal(b1-4)GlcNAc
# Outline: as §1
# [26] = molecular target: Neu5Ac(a2-3)Gal(b1-4)GlcNAc(b1-3)Gal(b1-4)GlcNAc(b1-3)Gal(b1-4)GlcNAc
# Outline: as §1
# [27] = molecular target: Neu5Ac(a2-3)Gal(b1-4)GlcNAc(b1-3)Gal(b1-4)[Fuc(a1-3)]GlcNAc
# Outline: as §1
# [28] = molecular target: Neu5Ac(a2-3)Gal(b1-4)GlcNAc(b1-3)GalNAc
# Outline: as §1
# [29] = molecular target: Neu5Ac(a2-3)Gal(b1-4)GlcNAc(b1-6)[Gal(b1-3)]GalNAc
# Outline: as §1
# [30] = molecular target: Neu5Ac(a2-3)Gal(b1-4)GlcNAc(b1-6)[Neu5Ac(a2-3)Gal(b1-3)]GalNAc
# Outline: as §1
# [31] = molecular target: Neu5Ac(a2-3)Gal(b1-4)GlcNAc6S
# Outline: as §1
# [32] = molecular target: Neu5Ac(a2-3)Gal(b1-4)[Fuc(a1-3)]GlcNAc
# Outline: as §1
binder,measurement,setting,value
"PEB3 (Campylobacter jejuni), Q0PBL7 (protein) MKKIITLFGACALAFSMANADVNLYGPGGPHTALKDIANKYSEKTGVKVNVNFGPQATWFEKAKKDADILFGASDQSALAIASDFGKDFNVSKIKPLYFREAIILTQKGNPLKIKGLKDLANKKVRIVVPEGAGKSNTSGTGVWEDMIGRTQDIKTIQNFRNNIVAFVPNSGSARKLFAQDQADAWITWIDWSKSNPDIGTAVAIEKDLVVYRTFNVIAKEGASKETQDFIAYLSSKEAKEIFKKYGWRE",glycan array binding signal (z-score),[1],0.371
same,glycan array binding signal (z-score),Man(a1-3)[Man(a1-6)]Man,-0.633
same,glycan array binding signal (z-score),[2],-0.739
same,glycan array binding signal (z-score),[3],-1.11
same,glycan array binding signal (z-score),[4],1.57
same,glycan array binding signal (z-score),[5],-0.607
same,glycan array binding signal (z-score),Man(a1-6)Man,0.414
same,glycan array binding signal (z-score),Man(b1-4)GlcNAc,0.127
same,glycan array binding signal (z-score),Neu5Ac(a2-3)Gal,-0.668
same,glycan array binding signal (z-score),[6],-1.07
same,glycan array binding signal (z-score),[7],-0.352
same,glycan array binding signal (z-score),[8],-0.541
same,glycan array binding signal (z-score),[9],-1.19
same,glycan array binding signal (z-score),[10],-0.289
same,glycan array binding signal (z-score),[11],-1.37
same,glycan array binding signal (z-score),[12],-0.681
same,glycan array binding signal (z-score),[13],-0.117
same,glycan array binding signal (z-score),[14],-0.701
same,glycan array binding signal (z-score),[15],-1.44
same,glycan array binding signal (z-score),[16],0.777
same,glycan array binding signal (z-score),[17],0.108
same,glycan array binding signal (z-score),[18],0.794
same,glycan array binding signal (z-score),[19],-0.899
same,glycan array binding signal (z-score),[20],0.075
same,glycan array binding signal (z-score),Neu5Ac(a2-3)Gal(b1-4)Glc,-0.913
same,glycan array binding signal (z-score),[21],-0.614
same,glycan array binding signal (z-score),[22],0.752
same,glycan array binding signal (z-score),[23],-0.36
same,glycan array binding signal (z-score),[24],-1.02
same,glycan array binding signal (z-score),[25],0.445
same,glycan array binding signal (z-score),[26],-1.17
same,glycan array binding signal (z-score),[27],0.473
same,glycan array binding signal (z-score),[28],-0.101
same,glycan array binding signal (z-score),[29],-0.744
same,glycan array binding signal (z-score),[30],-1.04
same,glycan array binding signal (z-score),[31],0.164
same,glycan array binding signal (z-score),[32],-0.771

# Taken from the listing for reference:
binder,measurement,setting,value
"PEB3 (Campylobacter jejuni), Q0PBL7 (protein) MKKIITLFGACALAFSMANADVNLYGPGGPHTALKDIANKYSEKTGVKVNVNFGPQATWFEKAKKDADILFGASDQSALAIASDFGKDFNVSKIKPLYFREAIILTQKGNPLKIKGLKDLANKKVRIVVPEGAGKSNTSGTGVWEDMIGRTQDIKTIQNFRNNIVAFVPNSGSARKLFAQDQADAWITWIDWSKSNPDIGTAVAIEKDLVVYRTFNVIAKEGASKETQDFIAYLSSKEAKEIFKKYGWRE",glycan array binding signal (z-score),[19],-0.899
same,glycan array binding signal (z-score),[20],0.075
same,glycan array binding signal (z-score),Neu5Ac(a2-3)Gal(b1-4)Glc,-0.913
same,glycan array binding signal (z-score),[21],-0.614
same,glycan array binding signal (z-score),[22],0.752
same,glycan array binding signal (z-score),[23],-0.36
same,glycan array binding signal (z-score),[24],-1.02
same,glycan array binding signal (z-score),[25],0.445
same,glycan array binding signal (z-score),[26],-1.17
same,glycan array binding signal (z-score),[27],0.473
same,glycan array binding signal (z-score),[28],-0.101
